Source: PMC12461627, “Locking CBL TKBD in its native conformation presents a novel therapeutic opportunity in mutant CBL-dependent leukemia” (Molecular Therapy, 2025)
No constants are given. Whether binding was seen depends on the method and setting. Binding seen in cells or lysates may run through a third protein. A yes stands for co-enrichment or nearness to the bait. Other partners may have been found. Tags and fused reporters may be left off the sequences shown.

Amino acid sequences for entries named in this document (tags omitted).
UniProt Q13191: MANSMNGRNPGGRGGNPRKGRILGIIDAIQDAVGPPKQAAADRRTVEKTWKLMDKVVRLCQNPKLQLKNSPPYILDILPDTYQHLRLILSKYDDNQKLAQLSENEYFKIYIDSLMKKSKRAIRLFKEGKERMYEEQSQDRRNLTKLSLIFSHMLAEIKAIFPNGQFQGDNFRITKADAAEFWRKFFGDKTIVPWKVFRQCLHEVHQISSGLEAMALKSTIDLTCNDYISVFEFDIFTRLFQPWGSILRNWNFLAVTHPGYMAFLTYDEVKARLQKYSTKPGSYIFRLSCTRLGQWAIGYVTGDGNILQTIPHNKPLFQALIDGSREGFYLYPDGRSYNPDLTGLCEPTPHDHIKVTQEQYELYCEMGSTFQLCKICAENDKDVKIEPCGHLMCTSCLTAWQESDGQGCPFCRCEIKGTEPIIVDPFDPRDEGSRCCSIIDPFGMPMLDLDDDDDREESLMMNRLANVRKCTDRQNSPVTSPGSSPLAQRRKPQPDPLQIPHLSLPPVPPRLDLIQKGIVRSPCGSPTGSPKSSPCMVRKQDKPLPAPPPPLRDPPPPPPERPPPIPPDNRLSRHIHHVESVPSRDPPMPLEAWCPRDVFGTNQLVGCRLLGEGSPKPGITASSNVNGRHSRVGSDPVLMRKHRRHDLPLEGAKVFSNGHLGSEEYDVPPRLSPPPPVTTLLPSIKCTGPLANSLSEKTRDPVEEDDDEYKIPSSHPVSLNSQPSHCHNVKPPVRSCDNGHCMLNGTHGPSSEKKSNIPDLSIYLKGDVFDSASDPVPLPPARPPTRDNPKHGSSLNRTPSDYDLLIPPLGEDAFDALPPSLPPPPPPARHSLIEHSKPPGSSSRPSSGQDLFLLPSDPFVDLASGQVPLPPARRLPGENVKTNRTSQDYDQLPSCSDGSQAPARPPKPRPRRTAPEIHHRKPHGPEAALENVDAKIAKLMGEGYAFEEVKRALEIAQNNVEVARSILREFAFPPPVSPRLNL

Molecular target: T1, GFP-peptide10 fusion protein (expressed in HEK293)
T1 sequence: MTVEEMDSWIKSWDQM
Assay: affinity purification with mass spectrometry; GFP fusion or empty vector expressed in HEK293, precipitated with GFP trap, on-bead digestion, label-free quantification

In the case of “CBL-B (endogenous, HEK293) (from UniProt Q13191 1-982)”, the binding is reported as “binds”.
